This note sets out measurements from publication PMC8371148.

Chains of the proteins cited; added tags and fusions are not shown.
UniProt P08670: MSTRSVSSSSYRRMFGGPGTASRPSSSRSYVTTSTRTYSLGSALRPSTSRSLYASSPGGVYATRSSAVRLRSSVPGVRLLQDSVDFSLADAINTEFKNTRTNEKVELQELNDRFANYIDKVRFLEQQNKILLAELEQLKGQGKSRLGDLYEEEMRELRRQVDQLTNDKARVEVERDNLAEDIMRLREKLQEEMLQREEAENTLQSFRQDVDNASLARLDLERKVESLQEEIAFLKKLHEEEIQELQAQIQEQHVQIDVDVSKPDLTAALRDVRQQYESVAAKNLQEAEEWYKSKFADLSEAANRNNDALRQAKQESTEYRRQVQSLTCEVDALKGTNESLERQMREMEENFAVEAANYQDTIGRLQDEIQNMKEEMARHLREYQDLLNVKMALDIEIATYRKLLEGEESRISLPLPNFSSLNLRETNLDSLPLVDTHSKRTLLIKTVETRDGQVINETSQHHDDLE

For this test, the target named is vimentin (human (endogenous in MDA-MB-231 and U2OS)) (UniProt P08670). Description: single-cell size-exclusion electrophoresis fractionation (SIFTER) with in-gel immunoprobing; single cells lysed in microwells of an 8%T polyacrylamide gel in F-actin stabilization buffer (10 mM Tris-HCl, 1% Triton X-100, 2 mM MgCl2, 0.5 mM DTE, pH 7.4); PAGE at 30 V cm^-1 for 45-60 s; complexes larger than ~740 kDa are retained in the microwell, then depolymerized (SDS, deoxycholate, 8 M urea) and run in the opposite direction; cells also treated with Latrunculin A, Jasplakinolide, DMSO or heat shock. A general note: SEC sorts molecules by how far they enter the pores of the column.

These are yes or no findings as the source states them, for the method shown. Some entries that bind do so weakly or less than the wild type.

On to vimentin (from UniProt P08670 1-466), for which the binding result was “binds”.
